Results published in publication PMC12647892, “State-selective small molecule degraders that preferentially remove aggregates and oligomers” (Nature Communications, 2025).
Results are given in words; binding and its absence hold for the method and conditions named.

Sequences of proteins named here, by UniProt entry; tags and fusion partners are left off. Residues count along the entry.
UniProt P19474, residues 287-465: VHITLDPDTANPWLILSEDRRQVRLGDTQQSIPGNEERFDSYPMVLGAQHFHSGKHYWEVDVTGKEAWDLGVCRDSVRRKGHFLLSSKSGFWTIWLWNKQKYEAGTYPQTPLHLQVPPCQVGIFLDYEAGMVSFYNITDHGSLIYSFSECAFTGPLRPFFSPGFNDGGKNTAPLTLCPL

Molecular target: TRIM21 PRYSPRY domain, His-tagged (TRIM21his-PS) (human) (UniProt P19474)
Test: AUC; sedimentation velocity, 50,000 rpm, 20 °C, A230; 5 µM of each protein alone; both purified

binding: no binding (tested: 5 µM)
Substance: TRIM21 PRYSPRY domain, His-tagged (TRIM21his-PS) (from UniProt P19474 287-465) (domain or fragment)
